This passage reports binding results from article PMC5379108.

Protein sequences, listed by entry. Tags and fused reporters are not part of them. Lines headed by an entry give the natural chain unless they say otherwise; changes in a name come on top.
UniProt Q8TEW0: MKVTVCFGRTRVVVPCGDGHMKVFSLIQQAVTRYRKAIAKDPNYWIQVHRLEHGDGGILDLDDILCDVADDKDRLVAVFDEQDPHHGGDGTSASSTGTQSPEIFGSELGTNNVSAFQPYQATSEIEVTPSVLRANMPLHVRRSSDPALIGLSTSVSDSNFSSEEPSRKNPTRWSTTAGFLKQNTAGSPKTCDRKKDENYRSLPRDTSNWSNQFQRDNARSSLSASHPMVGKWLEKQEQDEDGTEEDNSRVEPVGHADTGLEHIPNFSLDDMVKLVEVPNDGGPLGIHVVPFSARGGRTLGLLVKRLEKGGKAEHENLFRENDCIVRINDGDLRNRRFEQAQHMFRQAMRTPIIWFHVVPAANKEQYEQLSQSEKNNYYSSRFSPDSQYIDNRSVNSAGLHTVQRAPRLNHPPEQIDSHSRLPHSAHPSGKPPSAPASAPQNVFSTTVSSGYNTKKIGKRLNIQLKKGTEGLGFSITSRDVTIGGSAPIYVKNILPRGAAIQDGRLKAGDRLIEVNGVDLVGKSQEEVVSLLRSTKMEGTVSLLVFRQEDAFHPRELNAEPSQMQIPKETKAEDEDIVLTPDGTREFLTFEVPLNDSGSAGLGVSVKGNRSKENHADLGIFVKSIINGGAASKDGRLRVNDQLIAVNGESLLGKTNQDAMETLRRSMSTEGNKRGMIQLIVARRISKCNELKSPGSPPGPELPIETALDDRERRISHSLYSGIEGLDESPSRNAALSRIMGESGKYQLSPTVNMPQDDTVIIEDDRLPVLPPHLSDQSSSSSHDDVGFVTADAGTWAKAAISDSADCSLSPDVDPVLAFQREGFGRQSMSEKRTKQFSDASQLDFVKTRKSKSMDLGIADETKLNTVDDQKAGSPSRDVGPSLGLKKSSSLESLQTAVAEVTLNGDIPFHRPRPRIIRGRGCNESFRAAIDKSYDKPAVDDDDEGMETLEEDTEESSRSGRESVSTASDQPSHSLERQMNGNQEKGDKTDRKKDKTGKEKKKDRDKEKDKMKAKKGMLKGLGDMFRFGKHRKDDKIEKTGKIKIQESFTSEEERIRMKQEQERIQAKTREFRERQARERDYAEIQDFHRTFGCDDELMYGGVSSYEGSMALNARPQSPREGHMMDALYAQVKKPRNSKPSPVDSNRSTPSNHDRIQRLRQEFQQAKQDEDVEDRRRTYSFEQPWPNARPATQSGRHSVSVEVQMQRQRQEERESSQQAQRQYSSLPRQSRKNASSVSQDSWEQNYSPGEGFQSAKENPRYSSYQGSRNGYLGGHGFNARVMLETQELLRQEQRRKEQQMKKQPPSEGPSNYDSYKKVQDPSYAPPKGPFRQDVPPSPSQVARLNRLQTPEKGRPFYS
UniProt Q96A65: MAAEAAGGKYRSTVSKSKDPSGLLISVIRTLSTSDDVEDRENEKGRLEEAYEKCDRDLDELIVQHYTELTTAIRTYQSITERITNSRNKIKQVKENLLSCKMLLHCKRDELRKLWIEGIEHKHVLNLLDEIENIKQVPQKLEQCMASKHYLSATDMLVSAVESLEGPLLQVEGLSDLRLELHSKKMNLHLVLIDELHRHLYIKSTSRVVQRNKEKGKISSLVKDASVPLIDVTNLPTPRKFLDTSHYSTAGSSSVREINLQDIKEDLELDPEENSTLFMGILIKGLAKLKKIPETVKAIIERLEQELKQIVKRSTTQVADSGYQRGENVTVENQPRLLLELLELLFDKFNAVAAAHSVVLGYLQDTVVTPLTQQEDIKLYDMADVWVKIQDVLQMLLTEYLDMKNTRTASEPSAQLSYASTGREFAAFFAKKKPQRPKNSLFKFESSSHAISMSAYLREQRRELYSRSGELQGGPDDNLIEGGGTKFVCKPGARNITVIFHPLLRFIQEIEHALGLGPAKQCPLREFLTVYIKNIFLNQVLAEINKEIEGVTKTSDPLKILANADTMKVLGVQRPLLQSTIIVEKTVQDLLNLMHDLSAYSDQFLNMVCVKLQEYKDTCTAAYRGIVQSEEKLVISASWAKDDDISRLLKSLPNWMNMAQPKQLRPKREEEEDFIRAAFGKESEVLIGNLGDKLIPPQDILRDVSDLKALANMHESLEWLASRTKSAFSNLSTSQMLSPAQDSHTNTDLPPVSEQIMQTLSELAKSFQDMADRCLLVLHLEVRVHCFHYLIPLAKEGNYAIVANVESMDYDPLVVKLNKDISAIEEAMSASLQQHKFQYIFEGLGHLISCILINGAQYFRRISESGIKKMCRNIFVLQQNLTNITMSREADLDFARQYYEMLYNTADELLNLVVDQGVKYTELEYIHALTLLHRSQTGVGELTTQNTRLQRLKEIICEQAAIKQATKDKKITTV

No constants are given. Whether binding was seen depends on the method and setting. In cells and extracts the contact can be indirect. Binding can be weak; no strength is given.

Experiment [1] deals with Myc-PAR3 (from pKMyc-PAR3b) (human) (UniProt Q8TEW0). In words: co-IP; HEK293T cells transfected with pKMyc-PAR3b (PKYFP as negative control); immunoprecipitated with anti-Myc (9E10), blotted with anti-Sec8; lysis in 0.1% Triton-X100, 20 mM HEPES pH 7.4, 50 mM NaCl, 2 mM EDTA.
Experiment [2] addresses SEC8 (endogenous, HEK293T) (human (endogenous in HEK293T)) (UniProt Q96A65). In words: co-IP; YFP-PAR3 constructs transiently expressed in HEK293T cells; immunoprecipitated with anti-Sec8, blotted with anti-GFP or anti-Sec8.

With “SEC8 (endogenous, HEK293T) (from UniProt Q96A65 1-974)”, the binding result in experiment [1] was “binds”.

Regarding “wild-type YFP-PAR3 (from UniProt Q8TEW0-2)”, the binding result in experiment [2] is on record as “binds”.
